Reference: publication PMC5135769
Results are given in words; binding and its absence hold for the method and conditions named. Binding seen in cells or lysates may run through a third protein. Some entries that bind do so weakly or less than the wild type.

T1: Nup188 (human (endogenous in DLD1)), Q5SRE5
T1 chain: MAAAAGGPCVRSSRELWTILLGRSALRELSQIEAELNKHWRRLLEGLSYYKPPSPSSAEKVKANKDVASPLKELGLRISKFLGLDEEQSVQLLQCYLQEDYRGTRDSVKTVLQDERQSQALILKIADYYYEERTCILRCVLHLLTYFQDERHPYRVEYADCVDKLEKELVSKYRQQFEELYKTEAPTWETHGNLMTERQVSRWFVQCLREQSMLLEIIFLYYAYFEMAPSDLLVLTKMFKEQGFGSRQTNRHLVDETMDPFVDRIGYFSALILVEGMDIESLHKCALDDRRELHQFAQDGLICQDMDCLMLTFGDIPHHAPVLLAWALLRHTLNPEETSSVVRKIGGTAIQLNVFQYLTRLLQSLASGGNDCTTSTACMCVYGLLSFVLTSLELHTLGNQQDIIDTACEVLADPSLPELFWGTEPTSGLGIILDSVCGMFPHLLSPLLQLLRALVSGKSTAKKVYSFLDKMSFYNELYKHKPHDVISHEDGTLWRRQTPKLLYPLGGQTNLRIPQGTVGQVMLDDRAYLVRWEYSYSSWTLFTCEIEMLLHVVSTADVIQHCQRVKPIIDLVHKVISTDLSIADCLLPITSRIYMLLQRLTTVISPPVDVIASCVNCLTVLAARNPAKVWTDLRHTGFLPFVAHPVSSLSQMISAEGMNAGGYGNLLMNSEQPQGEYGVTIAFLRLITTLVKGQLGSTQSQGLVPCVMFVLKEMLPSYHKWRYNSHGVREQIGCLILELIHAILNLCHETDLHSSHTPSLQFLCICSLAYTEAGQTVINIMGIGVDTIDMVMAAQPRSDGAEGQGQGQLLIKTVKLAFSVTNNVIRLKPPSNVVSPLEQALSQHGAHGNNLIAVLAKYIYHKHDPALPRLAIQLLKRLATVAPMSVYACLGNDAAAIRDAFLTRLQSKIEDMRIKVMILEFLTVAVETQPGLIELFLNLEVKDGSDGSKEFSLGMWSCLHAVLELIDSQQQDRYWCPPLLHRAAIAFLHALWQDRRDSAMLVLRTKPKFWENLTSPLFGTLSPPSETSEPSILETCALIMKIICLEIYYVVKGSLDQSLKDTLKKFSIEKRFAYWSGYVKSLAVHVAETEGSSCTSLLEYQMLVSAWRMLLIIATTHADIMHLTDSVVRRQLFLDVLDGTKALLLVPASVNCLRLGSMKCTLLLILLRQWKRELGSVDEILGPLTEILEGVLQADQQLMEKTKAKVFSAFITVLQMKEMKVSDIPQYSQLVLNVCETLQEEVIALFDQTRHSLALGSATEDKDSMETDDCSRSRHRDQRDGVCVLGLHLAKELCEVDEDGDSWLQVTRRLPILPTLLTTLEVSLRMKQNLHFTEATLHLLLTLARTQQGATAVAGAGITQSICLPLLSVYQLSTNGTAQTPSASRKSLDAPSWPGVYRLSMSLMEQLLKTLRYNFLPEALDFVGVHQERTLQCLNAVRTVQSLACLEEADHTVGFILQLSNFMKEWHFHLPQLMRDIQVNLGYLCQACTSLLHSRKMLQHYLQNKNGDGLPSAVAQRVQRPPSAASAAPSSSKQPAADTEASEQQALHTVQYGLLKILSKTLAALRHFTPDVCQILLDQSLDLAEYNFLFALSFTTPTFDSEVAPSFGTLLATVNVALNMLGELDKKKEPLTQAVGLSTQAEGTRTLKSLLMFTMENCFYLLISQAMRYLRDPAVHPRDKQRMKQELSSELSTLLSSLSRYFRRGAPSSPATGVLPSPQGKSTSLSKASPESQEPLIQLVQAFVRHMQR

B1: Nup93 (protein, UniProt Q8N1F7 1-819)
chain: MDTEGFGELLQQAEQLAAETEGISELPHVERNLQEIQQAGERLRSRTLTRTSQETADVKASVLLGSRGLDISHISQRLESLSAATTFEPLEPVKDTDIQGFLKNEKDNALLSAIEESRKRTFGMAEEYHRESMLVEWEQVKQRILHTLLASGEDALDFTQESEPSYISDVGPPGRSSLDNIEMAYARQIYIYNEKIVNGHLQPNLVDLCASVAELDDKSISDMWTMVKQMTDVLLTPATDALKNRSSVEVRMEFVRQALAYLEQSYKNYTLVTVFGNLHQAQLGGVPGTYQLVRSFLNIKLPAPLPGLQDGEVEGHPVWALIYYCMRCGDLLAASQVVNRAQHQLGEFKTWFQEYMNSKDRRLSPATENKLRLHYRRALRNNTDPYKRAVYCIIGRCDVTDNQSEVADKTEDYLWLKLNQVCFDDDGTSSPQDRLTLSQFQKQLLEDYGESHFTVNQQPFLYFQVLFLTAQFEAAVAFLFRMERLRCHAVHVALVLFELKLLLKSSGQSAQLLSHEPGDPPCLRRLNFVRLLMLYTRKFESTDPREALQYFYFLRDEKDSQGENMFLRCVSELVIESREFDMILGKLENDGSRKPGVIDKFTSDTKPIINKVASVAENKGLFEEAAKLYDLAKNADKVLELMNKLLSPVVPQISAPQSNKERLKNMALSIAERYRAQGISANKFVDSTFYLLLDLITFFDEYHSGHIDRAFDIIERLKLVPLNQESVEERVAAFRNFSDEIRHNLSEVLLATMNILFTQFKRLKGTSPSSSSRPQRVIEDRDSQLRSQARTLITFAGMIPYRTSGDTNARLVQMEVLMN
B2: Nup98, P52948 1-880 (protein)
chain: MFNKSFGTPFGGGTGGFGTTSTFGQNTGFGTTSGGAFGTSAFGSSNNTGGLFGNSQTKPGGLFGTSSFSQPATSTSTGFGFGTSTGTANTLFGTASTGTSLFSSQNNAFAQNKPTGFGNFGTSTSSGGLFGTTNTTSNPFGSTSGSLFGPSSFTAAPTGTTIKFNPPTGTDTMVKAGVSTNISTKHQCITAMKEYESKSLEELRLEDYQANRKGPQNQVGAGTTTGLFGSSPATSSATGLFSSSTTNSGFAYGQNKTAFGTSTTGFGTNPGGLFGQQNQQTTSLFSKPFGQATTTQNTGFSFGNTSTIGQPSTNTMGLFGVTQASQPGGLFGTATNTSTGTAFGTGTGLFGQTNTGFGAVGSTLFGNNKLTTFGSSTTSAPSFGTTSGGLFGNKPTLTLGTNTNTSNFGFGTNTSGNSIFGSKPAPGTLGTGLGAGFGTALGAGQASLFGNNQPKIGGPLGTGAFGAPGFNTTTATLGFGAPQAPVALTDPNASAAQQAVLQQHINSLTYSPFGDSPLFRNPMSDPKKKEERLKPTNPAAQKALTTPTHYKLTPRPATRVRPKALQTTGTAKSHLFDGLDDDEPSLANGAFMPKKSIKKLVLKNLNNSNLFSPVNRDSENLASPSEYPENGERFSFLSKPVDENHQQDGDEDSLVSHFYTNPIAKPIPQTPESAGNKHSNSNSVDDTIVALNMRAALRNGLEGSSEETSFHDESLQDDREEIENNSYHMHPAGIILTKVGYYTIPSMDDLAKITNEKGECIVSDFTIGRKGYGSIYFEGDVNLTNLNLDDIVHIRRKEVVVYLDDNQKPPVGEGLNRKAEVTLDGVWPTDKTSRCLIKSPDRLADINYEGRLEAVSRKQGAQFKEYRPETGSWVFKVSHF

Experiments:
[1] = target: Nup188 (human (endogenous in DLD1)) (UniProt Q5SRE5); experiment: co-IP; reverse co-IP: IP with anti-Nup188 antibody from DLD1 whole-cell extracts, protein A dynabeads, Western blot; Co-IP buffer 50 mM Tris-HCl pH 8.0, 150 mM NaCl, 0.5% NP-40
[2] = target: T1, Nup188 (human (endogenous in DLD1)), …; experiment: as above; conditions: remark: other sources report otherwise

| binding [1] | binding [2] | Binder |
| --- | --- | --- |
| binds |  | B1 |
|  | no binding | B2 |
